# PubChem BioAssay (EPA / NIEHS)
# The chains behind the UniProt entries cited, without tags or fusion partners. Where a name states a change or a piece, a line headed by the entry shows the natural chain unless it says otherwise.
# UniProt P37231: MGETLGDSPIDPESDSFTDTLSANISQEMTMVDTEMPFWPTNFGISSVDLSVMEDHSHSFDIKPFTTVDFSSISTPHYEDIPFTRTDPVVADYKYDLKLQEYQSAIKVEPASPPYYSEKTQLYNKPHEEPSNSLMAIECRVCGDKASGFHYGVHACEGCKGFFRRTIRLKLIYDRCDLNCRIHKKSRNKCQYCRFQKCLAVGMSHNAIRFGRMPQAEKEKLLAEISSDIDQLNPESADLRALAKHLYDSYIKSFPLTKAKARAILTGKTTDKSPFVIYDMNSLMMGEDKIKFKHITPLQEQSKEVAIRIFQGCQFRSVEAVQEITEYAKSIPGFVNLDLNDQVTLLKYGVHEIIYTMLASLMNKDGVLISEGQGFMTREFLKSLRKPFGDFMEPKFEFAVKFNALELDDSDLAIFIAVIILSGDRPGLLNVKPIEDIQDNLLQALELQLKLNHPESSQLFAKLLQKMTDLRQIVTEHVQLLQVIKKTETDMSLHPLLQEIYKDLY
# UniProt P19785, whole entry, looked up: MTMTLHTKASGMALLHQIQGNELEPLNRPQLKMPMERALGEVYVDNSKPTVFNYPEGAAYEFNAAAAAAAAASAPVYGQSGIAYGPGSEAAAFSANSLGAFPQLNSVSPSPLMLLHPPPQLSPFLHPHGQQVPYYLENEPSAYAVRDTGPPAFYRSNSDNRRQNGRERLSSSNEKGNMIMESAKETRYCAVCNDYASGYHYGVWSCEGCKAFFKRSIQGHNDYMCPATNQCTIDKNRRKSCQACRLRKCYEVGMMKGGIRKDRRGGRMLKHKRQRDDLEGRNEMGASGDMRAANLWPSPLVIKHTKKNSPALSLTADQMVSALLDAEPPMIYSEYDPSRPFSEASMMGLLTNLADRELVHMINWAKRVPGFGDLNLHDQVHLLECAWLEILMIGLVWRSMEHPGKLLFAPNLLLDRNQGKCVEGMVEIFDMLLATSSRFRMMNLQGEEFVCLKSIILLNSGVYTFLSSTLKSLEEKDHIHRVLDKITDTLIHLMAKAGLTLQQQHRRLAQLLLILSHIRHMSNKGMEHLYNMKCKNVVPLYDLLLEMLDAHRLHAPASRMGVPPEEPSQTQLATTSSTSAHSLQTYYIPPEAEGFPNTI
# UniProt Q96RI1: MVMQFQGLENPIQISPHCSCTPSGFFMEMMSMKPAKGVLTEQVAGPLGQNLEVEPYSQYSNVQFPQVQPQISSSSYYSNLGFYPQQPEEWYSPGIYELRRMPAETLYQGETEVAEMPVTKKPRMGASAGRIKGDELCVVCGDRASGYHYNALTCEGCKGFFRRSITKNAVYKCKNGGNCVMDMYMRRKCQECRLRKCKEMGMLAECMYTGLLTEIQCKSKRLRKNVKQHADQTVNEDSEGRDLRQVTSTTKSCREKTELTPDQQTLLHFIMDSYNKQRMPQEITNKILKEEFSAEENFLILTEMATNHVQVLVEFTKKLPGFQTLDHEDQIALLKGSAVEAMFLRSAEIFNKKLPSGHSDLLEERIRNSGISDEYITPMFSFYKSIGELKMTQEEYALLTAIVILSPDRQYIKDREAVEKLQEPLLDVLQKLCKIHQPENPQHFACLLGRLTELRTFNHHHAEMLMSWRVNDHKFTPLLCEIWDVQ
# UniProt P10275: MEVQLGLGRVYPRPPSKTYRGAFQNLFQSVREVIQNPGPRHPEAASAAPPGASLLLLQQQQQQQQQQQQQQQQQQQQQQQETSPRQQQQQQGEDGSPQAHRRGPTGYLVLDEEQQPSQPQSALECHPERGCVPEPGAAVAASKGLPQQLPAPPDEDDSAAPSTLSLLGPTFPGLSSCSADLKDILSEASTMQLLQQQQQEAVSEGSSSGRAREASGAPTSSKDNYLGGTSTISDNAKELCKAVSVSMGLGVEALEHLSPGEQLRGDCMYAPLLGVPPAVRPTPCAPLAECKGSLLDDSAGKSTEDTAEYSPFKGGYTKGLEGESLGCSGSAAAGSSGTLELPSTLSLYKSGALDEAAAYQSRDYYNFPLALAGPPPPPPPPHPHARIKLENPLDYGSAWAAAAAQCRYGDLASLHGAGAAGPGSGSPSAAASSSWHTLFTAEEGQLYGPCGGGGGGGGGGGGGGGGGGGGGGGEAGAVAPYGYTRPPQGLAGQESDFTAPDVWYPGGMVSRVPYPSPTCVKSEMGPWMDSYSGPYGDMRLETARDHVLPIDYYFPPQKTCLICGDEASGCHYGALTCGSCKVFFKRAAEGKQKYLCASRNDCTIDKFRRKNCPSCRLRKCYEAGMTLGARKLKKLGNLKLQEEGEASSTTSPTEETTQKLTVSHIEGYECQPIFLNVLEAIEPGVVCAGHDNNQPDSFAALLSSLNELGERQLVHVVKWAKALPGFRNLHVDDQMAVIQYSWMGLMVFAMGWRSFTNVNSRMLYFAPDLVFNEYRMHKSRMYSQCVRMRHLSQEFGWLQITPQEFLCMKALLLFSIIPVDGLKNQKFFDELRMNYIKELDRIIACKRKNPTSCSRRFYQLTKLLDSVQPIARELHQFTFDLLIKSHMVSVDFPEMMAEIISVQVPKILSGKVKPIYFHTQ
# UniProt P23975, whole entry, looked up: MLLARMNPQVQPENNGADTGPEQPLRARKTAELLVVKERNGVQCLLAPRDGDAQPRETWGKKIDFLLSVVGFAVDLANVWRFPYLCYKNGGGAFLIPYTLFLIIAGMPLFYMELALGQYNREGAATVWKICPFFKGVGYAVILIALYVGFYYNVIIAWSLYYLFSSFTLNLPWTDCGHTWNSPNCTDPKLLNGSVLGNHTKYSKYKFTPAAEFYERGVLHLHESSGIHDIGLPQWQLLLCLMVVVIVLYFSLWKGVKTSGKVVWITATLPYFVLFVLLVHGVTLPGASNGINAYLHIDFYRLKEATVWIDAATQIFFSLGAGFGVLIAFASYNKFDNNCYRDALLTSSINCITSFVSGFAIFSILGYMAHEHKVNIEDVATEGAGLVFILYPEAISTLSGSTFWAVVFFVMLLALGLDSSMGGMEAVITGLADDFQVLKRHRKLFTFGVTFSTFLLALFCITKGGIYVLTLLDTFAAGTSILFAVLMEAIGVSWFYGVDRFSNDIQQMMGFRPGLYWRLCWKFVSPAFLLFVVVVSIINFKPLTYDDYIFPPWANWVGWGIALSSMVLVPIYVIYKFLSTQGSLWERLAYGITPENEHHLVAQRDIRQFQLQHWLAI
# UniProt Q01959, whole entry, looked up: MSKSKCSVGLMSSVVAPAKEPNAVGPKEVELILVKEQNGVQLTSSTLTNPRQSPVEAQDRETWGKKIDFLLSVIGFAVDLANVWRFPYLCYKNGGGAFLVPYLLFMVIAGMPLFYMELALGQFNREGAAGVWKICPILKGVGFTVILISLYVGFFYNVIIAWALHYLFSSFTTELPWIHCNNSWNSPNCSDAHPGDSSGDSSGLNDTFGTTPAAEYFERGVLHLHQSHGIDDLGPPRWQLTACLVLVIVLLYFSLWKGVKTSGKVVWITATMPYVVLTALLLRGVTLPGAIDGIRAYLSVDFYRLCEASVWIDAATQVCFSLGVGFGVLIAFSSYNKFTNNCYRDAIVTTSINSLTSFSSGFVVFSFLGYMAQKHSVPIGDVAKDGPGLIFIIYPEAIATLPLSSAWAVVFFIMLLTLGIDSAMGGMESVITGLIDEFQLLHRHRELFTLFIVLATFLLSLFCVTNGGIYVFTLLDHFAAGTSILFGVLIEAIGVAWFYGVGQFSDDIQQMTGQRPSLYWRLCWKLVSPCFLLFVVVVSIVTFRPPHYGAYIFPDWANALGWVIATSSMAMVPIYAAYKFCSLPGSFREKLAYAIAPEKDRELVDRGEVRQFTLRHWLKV
# Several values for one entry are separate records, joined by “and”; a condition that tells them apart may be missing. Equal values may be shown once. Inconclusive means that the source gave no clear call. Such entries were picked first, then a sample of the others. For some assays here: A potency beside an inconclusive call is a rough fit, not a confirmed value. A structure can be active in one record and inactive in another. Activity calls are given as the source filed them. The calls were made as follows: active = hit-call score of the fitted dose curve at least 0.9, where 1 is the maximum; inconclusive = response in the unintended direction; inactive = score below 0.9.
# Legend:
# [1] = biological target: Peroxisome proliferator-activated receptor gamma (Homo sapiens) (UniProt P37231); test: NVS_NR_hPPARg: NovaScreen (NVS) Nuclear Receptor Binding Assay for human Peroxisome Proliferator-activated Receptor gamma (PPARg) (AID 2283370)
# Summary of the method: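 Fluorescence polarization readout of ligand binding to extracted human PPARg, measured at 2 h. Duplicate single-point screen at 25 uM, then concentration-series retesting; activity defined as signal loss versus DMSO.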
# [2] = biological target: mouse Estrogen Receptor alpha (Era), Esr1 (gene 13982) (UniProt P19785); test: NVS_NR_mERa: NovaScreen (NVS) Nuclear Receptor Binding Assay for mouse Estrogen Receptor alpha (Era) (AID 2283378);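 also: hit means loss of bound radioligand signal relative to DMSO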
# Summary of the method: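 Filter radiodetection of radioligand displacement from extracted receptor protein, measured 18 h post-dose. Single 25 uM concentration in duplicate initially, with concentration-series follow-up. Binding loss fitted relative to DMSO.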
# [3] = biological target: Bile acid receptor (Homo sapiens) (UniProt Q96RI1); test: OT_FXR_FXRSRC1_1440: Odyssey Thera (OT) 24-hour HEK293T Protein-Complementation Assay for Farnesoid X receptor/SRC-1 Co-activator (AID 2283384)
# Summary of the method: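 Cell-based binding reporter: interaction of FXR with SRC-1 brings reporter fragments together, giving a fluorescence signal read 24 h after dosing of HEK293T cells.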
# [4] = biological target: Bile acid receptor (Homo sapiens) (UniProt Q96RI1); test: OT_FXR_FXRSRC1_0480: Odyssey Thera (OT) 8-hour HEK293T Protein-Complementation Assay for Farnesoid X receptor/SRC-1 Co-activator (AID 2283383)
# Summary of the method: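 Co-activator recruitment to FXR was measured in living HEK293T cells, where interaction of the two fused partners restored an active fluorescent reporter. Signal gain after 8 h treatment was referenced to DMSO.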
# [5] = biological target: Agonist Androgen Response Element (ARE), AR (gene 367) (UniProt P10275); test: OT_AR_ARELUC_AG_1440: Odyssey Thera (OT) 24-hour CHO-K1 Luciferase Assay for Agonist Androgen Response Element (ARE) (AID 2283379)
# Summary of the method: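 Agonist mode, 24 h exposure in CHO-K1 ARE-luciferase cells; values reflect luminescence induction over vehicle.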
# [6] = biological target: human Norepinephrine Transporter (NET), SLC6A2 (gene 6530) (UniProt P23975); test: NVS_TR_hNET: NovaScreen (NVS) Transporter Assay for human Norepinephrine Transporter (NET) (AID 2283377);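 also: cell-free membrane protein extracted from CHO cells expressing human NET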;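 as to AC50: displacement of radioligand from human NET seen as loss of scintillation signal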
# Summary of the method: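 Scintillation counts of filter-retained radioligand served as the readout, taken 1 h post-dosing in a cell-free CHO-derived system. Test chemicals ran first at 25 uM in duplicate; confirmed hits were retested across concentrations.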
# [7] = biological target: human Dopamine Transporter (DAT), SLC6A3 (gene 6531) (UniProt Q01959); test: NVS_TR_hDAT: NovaScreen (NVS) Transporter Assay for human Dopamine Transporter (DAT) (AID 2283374);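 also: activity means loss of bound radioligand signal relative to DMSO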
# Summary of the method: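 Test chemicals were first screened in duplicate at 25 uM, with actives retested as concentration series. Displacement of a specific radioligand from cell-free human dopamine transporter was measured after 1 h by filtration and scintillation counting.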
# [8] = tested on: rat Norepinephrine Transporter (NET), gene 83511; test: NVS_TR_rNET: NovaScreen (NVS) Transporter Assay for rat Norepinephrine Transporter (NET) (AID 2283373)
# Summary of the method: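 Rat forebrain membranes; radioligand binding measured by filter-based scintillation counting 1 hour after dosing. Loss of specific binding versus DMSO baseline scored; primary screen in duplicate at 25 uM, actives followed up in concentration series.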
structure (smiles),measurement,setting,value
COC(=O)c1ccc(O)cc1,AC50,[1],inconclusive: 25 µM
same,outcome,[2],inactive
CCCCCCCCCCCCOCCOS(=O)(=O)O,AC50,[1],inconclusive: 0.23 µM
same,AC50,[2],active: 29.4 µM
NS(=O)(=O)c1cc2c(cc1Cl)NCNS2(=O)=O,AC50,[1],inconclusive: 0.0197 µM
same,AC50,[3],inconclusive: 3.22 µM
O=C(O)c1ccc2c(c1)nc(C(=O)NC1CCN(C3CC3)CC1)n2Cc1cc(-c2ccc(Cl)s2)on1,AC50,[1],inconclusive: 0.021 µM
same,outcome,[3],inactive
Nc1ccc(Nc2ccccc2)cc1,AC50,[1],inconclusive: 45.6 µM
same,AC50,[2],inconclusive: 19.1 µM
Cc1ccc(N/N=c2\c(=O)cc/c(=N/Nc3ccc(S(=O)(=O)O)cc3)c2=O)c(C)c1,AC50,[1],active: 16 µM
same,AC50,[4],inconclusive: 13.6 µM
same,AC50,[3],inconclusive: 4.83 µM
N#CSCSc1nc2ccccc2s1,outcome,[1],inactive
same,AC50,[4],inconclusive: 92 µM
same,AC50,[3],inconclusive: 91.5 µM
CCN(Cc1cccnc1)C(=O)c1cccc(Cl)c1[C@]1(C)C(=O)N(Cc2ccc(OC)cc2OC)c2ccc(Cl)cc21,AC50,[1],inconclusive: 35.2 µM
same,AC50,[2],inconclusive: 3.25 µM
same,AC50,[4],active: 0.278 µM
CCOC(=O)O[C@H](C)OC(=O)c1ccc2c(c1)cc(C(=O)NC1CCN(C(C)C)CC1)n2Cc1cc(-c2ccc(Cl)s2)on1,AC50,[1],inconclusive: 42.2 µM
same,AC50,[2],inconclusive: 23.6 µM
same,AC50,[4],inconclusive: 47.2 µM
O=C(C(Cl)Cl)N1CCOC12CCCCC2,outcome,[1],inactive
same,outcome,[3],inactive
Clc1cc(Cl)c2c(c1)N=C1CCCCCN1C2,AC50,[1],inconclusive: 0.00114 µM
same,AC50,[4],inconclusive: 25 µM
CC(=O)N1CCN(c2ccc(OC[C@H]3CO[C@](Cn4ccnc4)(c4ccc(Cl)cc4Cl)O3)cc2)CC1,AC50,[1],inconclusive: 0.243 µM
same,outcome,[2],inactive
O=C(OCC1CCC2OC2C1)C1CCC2OC2C1 (stereo not drawn),AC50,[1],inconclusive: 25 µM
same,AC50,[2],inconclusive: 25 µM
CCC(=O)OC(C)(C)C1CC=C(C)CC1 (stereo not drawn),AC50,[1],inconclusive: 25 µM
same,AC50,[2],inconclusive: 45.8 µM
OC12N=C(c3ccccc3)SC1Cc1cc(Cl)ccc12 (stereo not drawn),AC50,[1],inconclusive: 0.0193 µM
same,AC50,[2],inconclusive: 25 µM
same,AC50,[3],active: 31.4 µM
N[C@@H](Cc1cc(I)c(Oc2ccc(O)c(I)c2)c(I)c1)C(=O)O,AC50,[1],inconclusive: 20 µM
same,AC50,[2],active: 1.65 µM and active: 20 µM and active: 4.66 µM
same,outcome,[2],inactive
CCCCCCCCCCCC(=O)OCC(O)CO (stereo not drawn),outcome,[1],inactive
same,AC50,[2],active: 6.68 µM
O=C(c1ccc(O)cc1O)c1ccc(O)cc1O,AC50,[1],inconclusive: 205 nM and inconclusive: 115 nM
same,AC50,[2],active: 470 nM and active: 647 nM and active: 1.69 µM
same,outcome,[2],inactive
same,AC50,[5],active: 722 nM and active: 29.3 µM
O=c1c(O)c(-c2ccc(O)c(O)c2)oc2cc(O)cc(O)c12,AC50,[1],active: 33.1 µM
same,AC50,[2],inconclusive: 42.7 µM
CC(C)(C)C(=O)C1C(=O)c2ccccc2C1=O,AC50,[2],inconclusive: 40.2 µM
Cc1ccc(O)c(-n2nc3ccccc3n2)c1,AC50,[2],active: 6.65 µM
CCCCCCCCOC(=O)c1cc(O)c(O)c(O)c1,AC50,[2],active: 11.3 µM
C#C[C@]1(O)CC[C@H]2[C@@H]3CCc4cc(OC)ccc4[C@H]3CC[C@@]21C,AC50,[6],active: 3.99 µM
same,outcome,[2],inactive
CCCCN(C)C,AC50,[6],inconclusive: 20 µM
[Cl][Dy]([Cl])[Cl],AC50,[6],inconclusive: 10 µM
OC1CCCCCCCCCCC1,AC50,[2],inconclusive: 25 µM
CCCCCCCCCCCCCOP(=O)(O)O,AC50,[2],active: 39.4 µM
c1cc[nH]c1,AC50,[7],inconclusive: 0.253 µM
O=c1cc(-c2ccccc2)oc2ccccc12,AC50,[2],inconclusive: 24.9 µM
Oc1cccc2c(O)cccc12,outcome,[6],inactive
CS(=O)(=O)OCCCCOS(C)(=O)=O,AC50,[8],inconclusive: 0.0873 µM
same,outcome,[6],inactive
CCCCCCCC(C)=O,AC50,[7],inconclusive: 25 µM
Cc1cc(C)n(CO)n1,outcome,[6],inactive
same,outcome,[3],inactive
CN(C)c1ccc(N=Nc2ccccc2C(=O)O)cc1,outcome,[2],inactive
Cc1cc(O)c2c(c1)C(=O)c1cc(O)cc(O)c1C2=O,AC50,[2],inconclusive: 42.4 µM
N=C(N)c1ccc(OCCCCCOc2ccc(C(=N)N)cc2)cc1,AC50,[6],active: 0.725 µM
c1ccc2c(c1)-c1cccc3c1c-2cc1ccccc13,outcome,[2],inactive
NC(=NCCCCCCN=C(N)/N=C(\N)Nc1ccc(Cl)cc1)/N=C(\N)Nc1ccc(Cl)cc1,AC50,[2],inconclusive: 38.5 µM

# No new results follow: entries from further up.
structure (smiles),measurement,setting,value
O=C(c1ccc(O)cc1O)c1ccc(O)cc1O,AC50,[1],inconclusive: 205 nM and inconclusive: 115 nM
same,AC50,[2],active: 470 nM and active: 647 nM and active: 1.69 µM
same,outcome,[2],inactive
